Results from paper doi:10.1101/2025.06.19.660329.
No constants are given. Whether binding was seen depends on the method and setting. Binding seen in cells or lysates may run through a third protein. Some binding calls cover weakened binding; strength is not graded here.

Target: T1, CD70 (human (endogenous in Raji)) (UniProt P32970)
T1 sequence: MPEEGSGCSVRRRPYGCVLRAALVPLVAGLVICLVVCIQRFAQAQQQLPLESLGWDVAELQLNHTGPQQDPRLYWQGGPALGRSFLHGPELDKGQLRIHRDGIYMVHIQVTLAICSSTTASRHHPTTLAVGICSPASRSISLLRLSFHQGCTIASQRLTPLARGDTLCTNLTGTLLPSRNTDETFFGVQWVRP
Test: proximity ligation

B1: CD20 (protein, UniProt P11836 1-297)
chain: MTTPRNSVNGTFPAEPMKGPIAMQSGPKPLFRRMSSLVGPTQSFFMRESKTLGAVQIMNGLFHIALGGLLMIPAGIYAPICVTVWYPLWGGIMYIISGSLLAATEKNSRKCLVKGKMIMNSLSLFAAISGMILSIMDILNIKISHFLKMESLNFIRAHTPYINIYNCEPANPSEKNSPSTQYCYSIQSLFLGILSVMLIFAFFQELVIAGIVENEWKRTCSRPKSNIVLLSAEEKKEQTIEIKEEVVGLTETSSQPKNEEDIEIIPIQEEEEEETETNFPEPPQDQESSPIENDSSP
With B1 the binding was “binds”.
